Measurements reported in US20250093263A1, “FRET-BASED ASSAYS” (The General Hospital Corporation, priority 2021, published 2025).
“Also recorded” adds a separate entry of the source. For at least one compound, name, drawing or mass did not settle the structure.

Biological target: T1, BRD4 in MDA-MB-231 cells (Homo sapiens, UniProt O60885)
T1 construct: TR-FRET-based quantification of BRD4 levels in unmodified cell lines after degrader treatment; endogenous in cells; host or cells: MDA-MB-231
Experiment: TR-FRET BRD4 quantification after degrader treatment, MDA-MB-231 cells
Assay type: cell-based
Conditions: 250 nM CS-JQ1; 1 μM rescue compound or 10 μM JQ1

COC(=O)[C@]12CCC(C)(C)C[C@H]1[C@H]1C(=O)C=C3[C@@]4(C)C=C(C#N)C(=O)C(C)(C)[C@@H]4CC[C@@]3(C)[C@]1(C)CC2 [CDDO-Me, bardoxolone methyl]
rescue of CS-JQ1-mediated BRD4 degradation: did not increase BRD4 levels; also recorded: does not attenuate BRD4 degradation
